Data: article PMC9988876
These are yes or no findings as the source states them, for the method shown. Binding seen in cells or lysates may run through a third protein. Some entries that bind do so weakly or less than the wild type. For some assays here: Sequences can lack the tags named with a protein.

The chains behind the UniProt entries cited, without tags or fusion partners. Where a name states a change or a piece, a line headed by the entry shows the natural chain unless it says otherwise. Residues count along the entry.
UniProt O14744: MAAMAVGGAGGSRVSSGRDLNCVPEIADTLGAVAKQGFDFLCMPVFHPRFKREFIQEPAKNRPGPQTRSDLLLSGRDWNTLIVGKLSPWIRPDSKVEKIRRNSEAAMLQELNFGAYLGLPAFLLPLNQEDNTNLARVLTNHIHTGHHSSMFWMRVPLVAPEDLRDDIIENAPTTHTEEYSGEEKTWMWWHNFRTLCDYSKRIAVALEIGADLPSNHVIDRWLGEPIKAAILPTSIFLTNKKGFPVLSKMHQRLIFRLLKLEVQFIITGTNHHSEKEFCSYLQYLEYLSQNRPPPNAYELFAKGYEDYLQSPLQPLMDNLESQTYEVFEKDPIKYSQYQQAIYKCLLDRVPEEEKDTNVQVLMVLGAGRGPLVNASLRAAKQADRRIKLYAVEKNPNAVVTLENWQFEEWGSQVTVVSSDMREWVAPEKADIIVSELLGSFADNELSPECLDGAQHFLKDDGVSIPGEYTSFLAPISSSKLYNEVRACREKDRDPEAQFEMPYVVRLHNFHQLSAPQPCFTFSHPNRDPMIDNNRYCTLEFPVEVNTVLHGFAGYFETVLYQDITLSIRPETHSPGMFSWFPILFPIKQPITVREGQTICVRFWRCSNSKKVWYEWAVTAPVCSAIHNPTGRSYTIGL
GST-PRMT5 421-637 (enzymatic activity region): residues 421-637 of O14744
UniProt Q93009: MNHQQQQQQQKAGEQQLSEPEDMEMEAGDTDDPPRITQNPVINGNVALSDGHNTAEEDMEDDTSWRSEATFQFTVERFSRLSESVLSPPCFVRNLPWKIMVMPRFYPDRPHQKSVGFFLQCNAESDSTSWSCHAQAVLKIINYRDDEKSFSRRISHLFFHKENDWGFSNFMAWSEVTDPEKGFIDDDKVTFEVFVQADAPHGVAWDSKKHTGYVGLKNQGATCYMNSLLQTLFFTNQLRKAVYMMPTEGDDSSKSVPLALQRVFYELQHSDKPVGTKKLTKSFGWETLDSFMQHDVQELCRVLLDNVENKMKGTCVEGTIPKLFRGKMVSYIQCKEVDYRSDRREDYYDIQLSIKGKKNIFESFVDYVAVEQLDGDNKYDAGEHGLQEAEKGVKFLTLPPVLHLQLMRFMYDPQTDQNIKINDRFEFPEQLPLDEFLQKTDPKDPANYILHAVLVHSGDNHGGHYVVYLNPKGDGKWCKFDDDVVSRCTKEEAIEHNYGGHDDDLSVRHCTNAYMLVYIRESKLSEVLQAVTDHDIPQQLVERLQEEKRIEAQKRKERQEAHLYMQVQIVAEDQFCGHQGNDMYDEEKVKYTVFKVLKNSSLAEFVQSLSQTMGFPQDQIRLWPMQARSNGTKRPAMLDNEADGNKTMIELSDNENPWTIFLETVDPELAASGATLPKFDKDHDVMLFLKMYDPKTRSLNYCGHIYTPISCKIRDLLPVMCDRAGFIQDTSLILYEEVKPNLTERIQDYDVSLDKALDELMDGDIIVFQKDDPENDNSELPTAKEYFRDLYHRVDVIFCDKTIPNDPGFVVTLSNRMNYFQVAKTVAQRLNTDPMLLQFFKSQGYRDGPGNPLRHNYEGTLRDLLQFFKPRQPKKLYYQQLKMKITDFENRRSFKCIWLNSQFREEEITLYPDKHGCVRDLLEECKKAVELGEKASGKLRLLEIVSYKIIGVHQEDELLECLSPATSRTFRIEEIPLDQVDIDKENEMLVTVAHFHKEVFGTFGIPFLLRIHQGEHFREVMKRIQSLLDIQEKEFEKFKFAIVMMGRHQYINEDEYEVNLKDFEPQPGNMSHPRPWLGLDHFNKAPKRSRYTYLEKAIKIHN

Assays:
[1] = molecular target: T1, Flag-G3BP2 wild type (human) (UniProt Q9UN86); assay: co-IP; Tu212 cells (text: Tu686 and Tu212) transfected with Flag-PRMT5 or Flag-G3BP2; precipitated with anti-Flag
T1 sequence: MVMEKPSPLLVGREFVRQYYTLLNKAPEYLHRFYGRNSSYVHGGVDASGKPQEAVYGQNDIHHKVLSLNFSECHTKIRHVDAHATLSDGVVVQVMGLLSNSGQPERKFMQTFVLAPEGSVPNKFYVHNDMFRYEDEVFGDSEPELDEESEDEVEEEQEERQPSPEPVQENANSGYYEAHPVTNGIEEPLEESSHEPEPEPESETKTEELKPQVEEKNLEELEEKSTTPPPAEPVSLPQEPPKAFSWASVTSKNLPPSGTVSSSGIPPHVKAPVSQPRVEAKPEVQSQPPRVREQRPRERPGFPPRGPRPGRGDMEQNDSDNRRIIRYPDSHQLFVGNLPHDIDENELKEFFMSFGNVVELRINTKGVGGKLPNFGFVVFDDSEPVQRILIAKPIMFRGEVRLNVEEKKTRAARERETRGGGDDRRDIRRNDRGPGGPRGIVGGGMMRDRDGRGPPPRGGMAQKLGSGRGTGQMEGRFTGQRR

[2] = molecular target: T1, Flag-G3BP2 wild type (human); assay: co-IP; HEK293 cells co-transfected with Flag-G3BP2 constructs and HA-USP7; precipitated with anti-Flag, blotted for HA-USP7
[3] = molecular target: GST-PRMT5 421-637 (enzymatic activity region) (UniProt O14744); assay: pull-down; GST-PRMT5 full length or truncations on GST beads; Flag-G3BP2 from HEK293 cells blotted with anti-Flag; pull-down buffer 50 mM Tris-Cl pH 8.0, 200 mM NaCl, 10 mM MgCl2, 1% NP-40, 1 mM EDTA, 1 mM DTT, 2 h at 4 °C; only the target purified
GST-PRMT5 full length = GST-PRMT5 full length (UniProt O14744); assay: as above
HA-USP7 = HA-USP7 (UniProt Q93009); assay: co-IP; HEK293 cells co-transfected with Flag-G3BP2 wild type or R468K, PRMT5 and HA-USP7, MG132 for 6 h; precipitated with anti-HA, blotted with anti-Flag
[4] = molecular target: PRMT5 in the HEK293 co-immunoprecipitation of Fig. 1B, C (not stated (endogenous in HEK293 or transfected)) (UniProt O14744); assay: co-IP; HEK293 cells; IgG as negative control
Flag-PRMT5 = Flag-PRMT5 (UniProt O14744); assay: co-IP; Tu212 cells (text: Tu686 and Tu212) transfected with Flag-PRMT5 or Flag-G3BP2; precipitated with anti-Flag
[5] = molecular target: Ubiquitin-Specific Peptidase 7 (USP7), endogenous (human (endogenous in Tu686)) (UniProt Q93009); assay: co-IP; Tu686 cells, negative control siRNA or PRMT5 siRNA, 40 μM MG132 for 6 h; precipitated with anti-USP7 or anti-G3BP2 antibody

“PRMT5, endogenous (from UniProt O14744 1-637) (enzyme)” was tested, and the binding [1] was “binds”.

In the case of “HA-USP7 (from UniProt Q93009 1-1102) (enzyme)”, the binding [2] is reported as “binds”.

B1: Flag-G3BP2 wild type (protein, UniProt Q9UN86 1-482)
chain: T1 sequence
With B1 the binding [3] was “binds”, the binding (GST-PRMT5 full length) was “binds” and the binding (HA-USP7) was “binds”.

B2: G3BP2 in the HEK293 co-immunoprecipitation of Fig. 1B, C (protein, UniProt Q9UN86 1-482)
chain: T1 sequence
In the case of B2, the binding [4] is reported as “binds”.

B3: GTPase-activating protein-binding protein 2 (G3BP2), endogenous (protein, UniProt Q9UN86 1-482)
chain: T1 sequence
B3 was tested, and the binding (Flag-PRMT5) was “binds” and the binding [5] was “binds”.
